Reference: PubChem BioAssay AID1259415 (National Center for Advancing Translational Sciences (NCATS), 2018)
Where “and” joins values, the source holds several entries; their conditions need not be identical. Identical values can stand only once. Hit rate of the full screen: of about 410,000 compounds, about 18,000 (4.4%) were called active. The shares of active, inactive and inconclusive entries below differ from those in the screen. No stated cut-off is given here; in the data, active means activity change below about -60%; inconclusive means no clear call, values can overlap the other calls; inactive means above about -39%.

Assay: qHTS Assay for inhibitors of the human cytomegalovirus (HCMV)
Conditions: HFF cells, HCMV-luciferase reporter, 72 h; at 57.5 µM; stronger effect = lower value
Outline: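 Screen run at 2 compound doses on HFFs infected with reporter HCMV, MOI 1 PFU/cell. Luciferase activity from cell lysates at 72 h post infection gave inhibition relative to buffer-only and Salinomycin wells.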
On the % scale 0 is the no-effect control and ±100 the full control effect.

**Q.** For `Cc1occc1-c1nnc(SCC(=O)Nc2ccccc2)n1C(C)c1ccccc1` (stereo unspecified), which activity change, negative = inhibition is on record?
**A.** inconclusive: -53.8%

**Q.** Which activity change, negative = inhibition does the source give for `CCc1c(C)nc2ncnn2c1N1CCCC(C(=O)NCc2ccc3c(c2)OCO3)C1` (stereo unspecified) here?
**A.** inconclusive: -48.1%

**Q.** Which activity change, negative = inhibition does the source give for `COc1ccc(OC)c(C2=NOC(C(=O)N3CCCc4ccccc43)C2)c1` (stereo unspecified) here?
**A.** active: -60%

**Q.** For `Cc1ccc(-n2c(/C=C\c3ccc(F)c(F)c3)nc3ccccc3c2=O)c(C)c1`, which activity change, negative = inhibition is on record?
**A.** inconclusive: -54.2%

**Q.** With `O=C(c1cccn1-c1nnc(N2CCCCC2)s1)N1CCN(c2ccc(Cl)cc2)CC1` as the compound, how does the activity change, negative = inhibition read?
**A.** inconclusive: 0%

**Q.** For `COc1ccc(C2=NOC(C)(c3nnc(-c4ccc(F)cc4)o3)C2)cc1` (stereo unspecified), which activity change, negative = inhibition is on record?
**A.** inactive: 6.68%

**Q.** With `COc1ccc(-n2c(C)c(C(C)=O)c3cc(OCC(N)=O)ccc32)cc1` as the compound, how does the activity change, negative = inhibition read?
**A.** inconclusive: -49.5%

**Q.** For `O=C(NCCCN1CCOCC1)c1cc(-c2ccc(Br)cc2)on1`, which activity change, negative = inhibition is on record?
**A.** inconclusive: -54.4%

**Q.** For `CCn1c2ccc(C)cc2c2nnc(SCCN3CCOCC3)nc21`, which activity change, negative = inhibition is on record?
**A.** inconclusive: -40.9%

**Q.** Which activity change, negative = inhibition does the source give for `CC(=O)c1cccc(NC(=O)CCc2nc3cccnc3n2Cc2cccs2)c1` here?
**A.** inactive: -32.7%

**Q.** Which activity change, negative = inhibition does the source give for `CC(=O)N(C(C)=O)n1c(/C=C/c2cccc([N+](=O)[O-])c2)nc2ccccc2c1=O` here?
**A.** inconclusive: -53.9%

**Q.** Which activity change, negative = inhibition does the source give for `CC1=C(/C=C/C(C)=C/C=C/C(C)=C/C(=O)Nc2ccc(O)cc2)C(C)(C)CCC1` here?
**A.** active: -76.3% and active: -76.9%

**Q.** Which activity change, negative = inhibition does the source give for `Cc1cc(NC(=O)c2cccs2)n(-c2nc3ccccc3[nH]2)n1` here?
**A.** inconclusive: -57%

**Q.** With `CC(=O)OC12COC1CC(O)C1(C)C(=O)C(O)C3=C(C)C(O)CC(O)(C(OC(=O)c4ccccc4)C21)C3(C)C` (stereo unspecified) as the compound, how does the activity change, negative = inhibition read?
**A.** inactive: -37.1%

**Q.** With `Cc1ccc(NC(=O)CCC(=O)N/N=C/c2ccc([N+](=O)[O-])o2)cc1C` as the compound, how does the activity change, negative = inhibition read?
**A.** inconclusive: -48.4%

**Q.** For `Cc1cccc2[nH]c3c(N4CC=C(c5ccc(F)cc5)CC4)ncnc3c12`, which activity change, negative = inhibition is on record?
**A.** inconclusive: -59.8%

**Q.** With `CCOC(=O)N1CCN(c2cc3nccnc3cc2F)CC1` as the compound, how does the activity change, negative = inhibition read?
**A.** inconclusive: -56.4%

**Q.** For `Cc1cc(C)nc(Nc2nc(C(N)Cc3ccccc3)cs2)n1` (stereo unspecified), which activity change, negative = inhibition is on record?
**A.** active: -73.5%

**Q.** Which activity change, negative = inhibition does the source give for `COc1ccc(CNC(=O)C(=O)NCC(c2cccnc2)N2CCN(c3ccccc3)CC2)cc1` (stereo unspecified) here?
**A.** inconclusive: -48.7%

**Q.** For `Cc1ccc(S(=O)(=O)NC(=O)ON=Cc2ccc3c(c2)OCO3)cc1`, which activity change, negative = inhibition is on record?
**A.** active: -97.7%

**Q.** With `CCOC(=O)N1CCC(N(CCN(C)C)C(=S)Nc2ccc(Oc3ccccc3)cc2)CC1` as the compound, how does the activity change, negative = inhibition read?
**A.** inconclusive: -47.4%

**Q.** Which activity change, negative = inhibition does the source give for `COc1ccc2c(ccc[n+]2CC(=O)c2ccccc2)c1` here?
**A.** inactive: -5.11%

**Q.** With `COc1ccc(/C=C/C(=O)c2cc(Cl)cc(Cl)c2O)c(OC)c1` as the compound, how does the activity change, negative = inhibition read?
**A.** inconclusive: -41.8%

**Q.** For `O=C(CNC(=O)c1ccccc1F)NNC(=O)c1ccccc1O`, which activity change, negative = inhibition is on record?
**A.** inactive: 1.43%

**Q.** Which activity change, negative = inhibition does the source give for `COc1ccc(-c2csc(NC(=O)c3ccc(S(=O)(=O)N4CCc5ccccc5C4)cc3)n2)cc1` here?
**A.** inconclusive: -43.8%

**Q.** With `Cc1cccc(NC(=O)/C(C#N)=C/c2ccc(F)cc2)n1` as the compound, how does the activity change, negative = inhibition read?
**A.** inconclusive: -40.1%

**Q.** With `N=c1c(S(=O)(=O)c2ccc(Br)cc2)cc2c(=O)n3ccccc3nc2n1Cc1ccccc1` as the compound, how does the activity change, negative = inhibition read?
**A.** inconclusive: -45.4%

**Q.** Which activity change, negative = inhibition does the source give for `O=C(Cc1ccc(NC(=O)C2CCN(C(=O)CCc3ccccc3)CC2)cc1)Nc1ccc(C(=O)N2CCOCC2)cc1` here?
**A.** inactive: 4.46%

**Q.** With `CCOC(=O)N[C@H](C(=O)N1CCC[C@H]1C(=O)NCCc1ccccc1Cl)c1ccccc1` as the compound, how does the activity change, negative = inhibition read?
**A.** inconclusive: -47.6%

**Q.** With `CCOc1ccc(NC(=O)CSc2nc3ccccc3c(=O)n2CCCC(=O)NCCCN2CCCC2=O)cc1` as the compound, how does the activity change, negative = inhibition read?
**A.** inactive: -28.3%

**Q.** Which activity change, negative = inhibition does the source give for `CC(C)NC(=S)NC(c1ccccc1)(c1ccccc1)c1ccccc1` here?
**A.** inconclusive: -59.5%

**Q.** For `O=S(=O)(c1ccccc1F)N1CCN(CCOc2ccccc2)CC1`, which activity change, negative = inhibition is on record?
**A.** inactive: -10.1%

**Q.** With `CC(NS(=O)(=O)c1ccc(OCC(=O)NCc2ccncc2)cc1)c1ccccc1` (stereo unspecified) as the compound, how does the activity change, negative = inhibition read?
**A.** inconclusive: -42.9%

**Q.** For `N#C/C(=C\c1ccc(F)cc1)c1nc(-c2ccc(-c3ccccc3)cc2)cs1`, which activity change, negative = inhibition is on record?
**A.** inconclusive: -50.4%

**Q.** With `Cc1cc(C(=O)O)c(CSc2ncn[nH]2)o1` as the compound, how does the activity change, negative = inhibition read?
**A.** inconclusive: -51.5%

**Q.** For `COc1ccc(CNC(=O)c2ccc(N3CCC4(CC3)CC(c3ccc(Cl)cc3)=NO4)c([N+](=O)[O-])c2)cc1`, which activity change, negative = inhibition is on record?
**A.** inconclusive: -54%

**Q.** For `CCCC1=Nc2cc(C(=O)NC3CCCCC3)ccc2Sc2ccc(C)cc21`, which activity change, negative = inhibition is on record?
**A.** active: -91.1%

**Q.** For `COC(=O)C1=C(c2ccc(F)cc2OCc2ccccc2)C[C@@H]2CC[C@H]1N2C(=O)NCc1ccccc1Cl`, which activity change, negative = inhibition is on record?
**A.** active: -62.7%

**Q.** Which activity change, negative = inhibition does the source give for `O=[N+]([O-])c1cc(/C=N/Nc2nc3ccccc3[nH]2)c(O)cc1O` here?
**A.** active: -98.8%

**Q.** For `CCCn1c(C)cc(C(=O)CN2C(=O)c3ccccc3S2(=O)=O)c1C`, which activity change, negative = inhibition is on record?
**A.** active: -86.4%

**Q.** With `CC(C)CCNC(=O)C(c1ccc(O)cc1)N(C(=O)C1COc2ccccc2O1)c1cccc(O)c1` (stereo unspecified) as the compound, how does the activity change, negative = inhibition read?
**A.** active: -63.4%

**Q.** Which activity change, negative = inhibition does the source give for `CCc1nnc(NC(=O)c2ccc3c(=O)n4c(nc3c2)CCCCC4)s1` here?
**A.** inactive: -14.1%

**Q.** With `COc1ccc(NC(=O)Cn2c(-c3ccc(F)cc3)cc(C(C)=O)c2C)c(OC)c1` as the compound, how does the activity change, negative = inhibition read?
**A.** inconclusive: 0%

**Q.** For `COCCCN1C(=O)C(=O)/C(=C(/O)c2ccc(S(=O)(=O)N3CCCCC3)cc2)C1c1ccc(O)cc1` (stereo unspecified), which activity change, negative = inhibition is on record?
**A.** inconclusive: -42.8%

**Q.** Which activity change, negative = inhibition does the source give for `COc1ccc(N2CCN(C(=O)c3cccc(Br)c3)CC2)c([N+](=O)[O-])c1` here?
**A.** inconclusive: -46.9%

**Q.** Which activity change, negative = inhibition does the source give for `COc1ccc(CCNC(=O)Cn2c(=O)nc(-c3ccccc3)c3cc(Cl)ccc32)cc1OC` here?
**A.** inconclusive: -57.7%

**Q.** Which activity change, negative = inhibition does the source give for `Cc1ccc2[nH]c3c(=O)n(Cc4ccco4)cnc3c2c1` here?
**A.** inconclusive: -47.4%

**Q.** Which activity change, negative = inhibition does the source give for `Cc1ccc2nc(Nc3nc(-c4ccccc4)cc(=O)[nH]3)nc(C)c2c1` here?
**A.** active: -67.3%

**Q.** With `CCOC(=O)/C=c1\s/c(=C\c2ccc(C)cc2)c(=O)n1CC(=O)NCc1ccco1` as the compound, how does the activity change, negative = inhibition read?
**A.** inconclusive: -46.3%

**Q.** For `COc1c(C(=O)NNC(=O)c2ccccc2)csc1Br`, which activity change, negative = inhibition is on record?
**A.** inactive: 90.9%

**Q.** With `O=c1[nH]c2ccccc2n1C1CCN(C(c2ccnc3ccccc23)c2nnnn2Cc2ccccc2)CC1` (stereo unspecified) as the compound, how does the activity change, negative = inhibition read?
**A.** active: -61.4%
